Data published in US10865191B2, “Heterocyclic compounds useful as modulators of TNF alpha” (BRISTOL-MYERS SQUIBB COMPANY, priority 2015, dated 2020).
Read-outs that look alike come from different tables or passages of the source. Some of these results come from one statement about several compounds together.

Chains of the proteins cited; added tags and fusions are not shown. Residues count along the entry.
UniProt P01375, 77-233 limits assumed: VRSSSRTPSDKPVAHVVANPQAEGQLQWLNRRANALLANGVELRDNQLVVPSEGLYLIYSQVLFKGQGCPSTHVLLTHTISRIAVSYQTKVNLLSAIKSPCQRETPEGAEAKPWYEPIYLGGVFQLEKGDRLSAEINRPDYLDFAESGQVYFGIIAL

Target: TNFα (Homo sapiens, UniProt P01375)
Assay: TNF induced HEK-Blue assay (NF-kB-driven secreted alkaline phosphatase reporter)
Assay type: cell-based
In short: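 HEK-Blue-CD40L cells (NF-kB-driven SEAP reporter), 20,000/well, added after 30 min pre-incubation of compound (0.004–25 μM final) with TNFα 0.5 ng/mL final at 37 °C; 18 h incubation. SEAP read with QUANTI-Blue at 620 nm; IC50 from 4-parameter logistic fit, normalized to unstimulated and stimulated DMSO controls.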

[1] = TNFα 0.5 ng/mL, HEK-Blue-CD40L cells, 18 h; read-out: IC50 values measured in the TNF induced HEK-Blue assay
[2] = read-out: IC50 values measured in the TNF induced HEK-Blue assay; TNFα 0.5 ng/mL, HEK-Blue-CD40L cells, 18 h

IC50 [1] [µM] | IC50 [2] [µM] | SMILES
≤ 25 | – | C[C@@H](Nc1c(Cl)cnc2ccc(-c3ccc(CC(N)C(=O)O)cc3)cc12)c1ccccc1F (mixture of isomers) [Example 116, 2-amino-3-(4-(3-chloro-4-(((R)-1-(2-fluorophenyl)ethyl)amino)quinolin-6-yl)phenyl)propanoic acid]
≤ 25 | – | Fc1ccc(Br)cc1CNc1c(Cl)cnc2ccccc12 [Example 516, N-(5-bromo-2-fluorobenzyl)-3-chloroquinolin-4-amine]
≤ 25 | – | C[C@@H](Nc1c(Cl)cnc2ccc(-c3ccc(C4(N)CC(O)C4)cc3)cc12)c1ccccc1F (mixture of isomers) [Example 119, (R)-3-amino-3-(4-(3-chloro-4-((1-(2-fluorophenyl)ethyl)amino)quinolin-6-yl)phenyl)cyclobutan-1-ol]
≤ 25 | – | CC(Nc1c(Cl)cnc2cc(F)c(-c3ccc(C4(CO)CC4)cc3)cc12)c1ccccc1F (racemic) [Example 264, (1-(4-(3-chloro-7-fluoro-4-((1-(2-fluorophenyl)ethyl)amino)quinolin-6-yl)phenyl)cyclopropyl)methanol]
≤ 25 | – | COc1ccc(F)c([C@@H](C)Nc2c(Cl)c(C)nc3ccc(-c4cnc(C(C)(C)O)nc4)cc23)c1 [Example 326, (R)-2-(5-(3-chloro-4-((1-(2-fluoro-5-methoxyphenyl)ethyl)amino)-2-methylquinolin-6-yl)pyrimidin-2-yl)propan-2-ol]
≤ 25 | – | Fc1ccc(Br)cc1[C@@H](Nc1c(Cl)cnc2ccccc12)C(F)F [Example 510, (R)—N-(1-(5-bromo-2-fluorophenyl)-2,2-difluoroethyl)-3-chloroquinolin-4-amine]
≤ 25 | – | CCC(Nc1c(Cl)cnc2ccccc12)c1ccccc1F (stereo not drawn) [Example 453, 3-chloro-N-(1-(2-fluorophenyl)propyl)quinolin-4-amine]
≤ 25 | – | C[C@@H](Nc1c(Cl)cnc2ccccc12)c1cc(-c2cnn(C(F)F)c2)ccc1F [Example 471, (R)-3-chloro-N-(1-(5-(1-(difluoromethyl)-1H-pyrazol-4-yl)-2-fluorophenyl)ethyl) quinolin-4-amine]
≤ 25 | – | CC(Nc1c(Cl)cnc2cc(F)c(-c3ccc(C(O)CO)cc3)cc12)c1cc(C#N)ccc1F (mixture of isomers) [Example 599, 3-(1-((3-chloro-6-(4-(1,2-dihydroxyethyl)phenyl)-7-fluoroquinolin-4-yl)amino)ethyl)-4-fluorobenzonitrile]
≤ 25 | – | CC(Nc1c(Cl)cnc2ccc(-c3cnc(C(C)(C)O)nc3)cc12)c1ccncc1F (racemic) [Example 162, 2-(5-(3-chloro-4-((1-(3-fluoropyridin-4-yl)ethyl)amino)quinolin-6-yl)pyrimidin-2-yl)propan-2-ol]
≤ 25 | – | COc1ccc(F)c([C@H](C)Nc2c(Cl)cnc3ccccc23)c1 [Example 476, (S)-3-chloro-N-(1-(2-fluoro-5-methoxyphenyl)ethyl)quinolin-4-amine]
≤ 25 | – | CC(C)(O)c1ncc(-c2ccc3ncc(Cl)c(NC(c4ccccc4F)C4CC4)c3c2)cn1 (racemic) [Example 191, 2-(5-(3-chloro-4-((cyclopropyl(2-fluorophenyl)methyl)amino)quinolin-6-yl)pyrimidin-2-yl)propan-2-ol]
– | ≤ 25 | C[C@@H](Nc1c(Cl)cnc2ccc(-c3cnc(C(C)(C)O)nc3)cc12)c1ccccc1F [Example 217, (R)-2-(5-(3-chloro-4-(1-(2-fluorophenyl)ethylamino)quinolin-6-yl)pyrimidin-2-yl)propan-2-ol]
≤ 25 | – | Cc1cnc2ccc(-c3cnc(C(C)(C)O)nc3)cc2c1N[C@H](C)c1ccccc1F [Example 240, (R)-2-(5-(4-((1-(2-fluorophenyl)ethyl)amino)-3-methylquinolin-6-yl)pyrimidin-2-yl)propan-2-ol]
≤ 25 | – | COc1ccncc1-c1ccc(F)c([C@@H](C)Nc2c(Cl)cnc3ccccc23)c1 [Example 548, (R)-3-chloro-N-(1-(2-fluoro-5-(4-methoxypyridin-3-yl)phenyl)ethyl) quinolin-4-amine]
≤ 25 | – | C[C@@H](Nc1c(Cl)cnc2ccc(-c3cnc(N4CCN(CC#N)CC4)nc3)cc12)c1ccccc1F [Example 233, (R)-2-(4-(5-(3-chloro-4-((1-(2-fluorophenyl)ethyl)amino)quinolin-6-yl)pyrimidin-2-yl)piperazin-1-yl)acetonitrile]

The next lines start with the compound.

SMILES | IC50 [1] [µM] | IC50 [2] [µM]
CC(C)(O)c1ncc(-c2nc3c(N[C@@H](c4cc(CO)ccc4F)C(F)F)c(Cl)cnc3cc2F)cn1 [Example 501, (S)-2-(5-(7-chloro-8-((2,2-difluoro-1-(2-fluoro-5-(hydroxymethyl)phenyl)ethyl)amino)-3-fluoro-1,5-naphthyridin-2-yl)pyrimidin-2-yl)propan-2-ol] | ≤ 25 | –
Cc1ccc(C)c(Nc2c(F)c(C)nc3ccc(-c4cnc(N5CCN(CC(=O)O)CC5)nc4)cc23)c1 [Example 187, 2-(4-(5-(4-((2,5-dimethylphenyl)amino)-3-fluoro-2-methylquinolin-6-yl)pyrimidin-2-yl)piperazin-1-yl)acetic acid] | ≤ 25 | –
C[C@@H](Nc1c(Cl)cnc2ccc(-c3cnc(C(C)(C)O)nc3)cc12)c1cc(-c2cc(C(=O)O)[nH]n2)ccc1F [Example 428, (R)-3-(3-(1-((3-chloro-6-(2-(2-hydroxypropan-2-yl)pyrimidin-5-yl)quinolin-4-yl)amino)ethyl)-4-fluorophenyl)-1H-pyrazole-5-carboxylic acid] | ≤ 25 | –
C=Cc1cccc([C@@H](C)Nc2c(Cl)c(C)nc3cc(F)c(-c4cnc(C(C)(C)O)nc4)nc23)c1 [Example 571, (R)-2-(5-(7-chloro-3-fluoro-6-methyl-8-((1-(3-vinylphenyl)ethyl)amino)-1,5-naphthyridin-2-yl)pyrimidin-2-yl)propan-2-ol] | ≤ 25 | –
Cc1nc2ccc(-c3cnc(C(C)(C)O)nc3)cc2c(N[C@H](C)c2cc(C(O)CO)ccc2F)c1Cl (mixture of isomers) [Example 397, 1-(3-((R)-1-((3-chloro-6-(2-(2-hydroxypropan-2-yl)pyrimidin-5-yl)-2-methylquinolin-4-yl)amino)ethyl)-4-fluorophenyl)ethane-1,2-diol] | ≤ 25 | –
Cc1nc2cc(F)c(-c3cnc(C(C)(C)O)nc3)nc2c(N[C@H](C)c2cccc(C(N)=O)c2)c1Cl [Example 580, (R)-3-(1-((3-chloro-7-fluoro-6-(2-(2-hydroxypropan-2-yl)pyrimidin-5-yl)-2-methyl-1,5-naphthyridin-4-yl)amino)ethyl)benzamide] | ≤ 25 | –
CC(Nc1c(Cl)cnc2c(Cl)cc(-c3cnc(N4CCNC(=O)C4)nc3)cc12)c1ccccc1F (racemic) [Example 18, 4-(5-(3,8-dichloro-4-((1-(2-fluorophenyl)ethyl)amino)quinolin-6-yl)pyrimidin-2-yl)piperazin-2-one] | ≤ 25 | –
CC(C)(O)c1ncc(-c2ccc3ncc(Cl)c(NCc4ccc(OC(F)F)cc4)c3c2)cn1 [Example 148, 2-(5-(3-chloro-4-((4-(difluoromethoxy)benzyl)amino)quinolin-6-yl)pyrimidin-2-yl)propan-2-ol] | ≤ 25 | –
C[C@@H](Nc1c(Cl)cnc2ccc(-c3cnc(N4CCN(Cc5nn[nH]n5)CC4)nc3)cc12)c1ccccc1F [Example 237, (R)-6-(2-(4-((2H-tetrazol-5-yl)methyl)piperazin-1-yl)pyrimidin-5-yl)-3-chloro-N-(1-(2-fluorophenyl)ethyl)quinolin-4-amine] | ≤ 25 | –
CC(C)(O)c1ncc(-c2ccc3ncc(Cl)c(NC(c4ccccc4)C(F)F)c3c2)cn1 (racemic) [Example 57, 2-(5-(3-chloro-4-((2,2-difluoro-1-phenylethyl)amino)quinolin-6-yl)pyrimidin-2-yl)propan-2-ol] | ≤ 25 | –
Cc1nc2ccc(-c3cnc(N4CCN(CC(=O)O)CC4)nc3)cc2c(N[C@H](C)c2cc(-c3cn[nH]c3)ccc2F)c1Cl [Example 342, (R)-2-(4-(5-(3-chloro-4-((1-(2-fluoro-5-(1H-pyrazol-4-yl)phenyl)ethyl)amino)-2-methylquinolin-6-yl)pyrimidin-2-yl)piperazin-1-yl)acetic acid] | ≤ 25 | –
CC(Nc1c(Cl)cnc2ccc(-c3cnc(C(C)(C)O)nc3)cc12)c1ccc(F)cc1 (racemic) [Example 157, 2-(5-(3-chloro-4-((1-(4-fluorophenyl)ethyl)amino)quinolin-6-yl)pyrimidin-2-yl)propan-2-ol] | – | ≤ 25
Cc1nc2ccc(-c3cnc(C(C)(C)O)nc3)cc2c(N[C@H](C)c2cc(C(=O)O)ccc2F)c1Cl [Example 407, (R)-3-(1-((3-chloro-6-(2-(2-hydroxypropan-2-yl)pyrimidin-5-yl)-2-methylquinolin-4-yl)amino)ethyl)-4-fluorobenzoic acid] | ≤ 25 | –
C[C@@H](Nc1c(Cl)cnc2cc(F)c(-c3cnc(C(C)(C)O)nc3)nc12)c1cccc(C(O)CO)c1 (stereo partly drawn) [Example 573, 1-(3-((R)-1-((3-chloro-7-fluoro-6-(2-(2-hydroxypropan-2-yl)pyrimidin-5-yl)-1,5-naphthyridin-4-yl)amino)ethyl)phenyl)ethane-1,2-diol] | ≤ 25 | –
CC(Nc1c(Cl)cnc2ccc(-c3ccc(C(C)(C)O)cc3)cc12)c1cnccn1 (racemic) [Example 198, 2-(4-(3-chloro-4-((1-(pyrazin-2-yl)ethyl)amino)quinolin-6-yl)phenyl)propan-2-ol] | ≤ 25 | –
Cc1nc2ccc(-c3cnc(N4CCNC(=O)C4)nc3)cc2c(N[C@H](C)c2cc(C(N)=O)ccc2F)c1Cl [Example 447, (R)-3-(1-((3-chloro-2-methyl-6-(2-(3-oxopiperazin-1-yl)pyrimidin-5-yl)quinolin-4-yl)amino)ethyl)-4-fluorobenzamide] | ≤ 25 | –
CC(Nc1c(Cl)cnc2ccc(-c3ccc(C(C)(C)O)cc3)cc12)c1ccn(C)n1 (racemic) [Example 200, 2-(4-(3-chloro-4-((1-(1-methyl-1H-pyrazol-3-yl)ethyl)amino)quinolin-6-yl)phenyl)propan-2-ol] | ≤ 25 | –
